Whole data set: some 33,000 sequences, median “E-score (-0.5 to 0.5)” near -0.0014, cut for the highest 2% near 0.25. The list shows a part of the results.
molecular target: T1, Cad1 (UniProt P24813); assay: PBM E-score (8-mer binding enrichment) (E-score (-0.5 to 0.5)); higher = stronger / more preferred TF binding; conditions: protein concentration: 100 nM; construct: GST-full length
T1 sequence: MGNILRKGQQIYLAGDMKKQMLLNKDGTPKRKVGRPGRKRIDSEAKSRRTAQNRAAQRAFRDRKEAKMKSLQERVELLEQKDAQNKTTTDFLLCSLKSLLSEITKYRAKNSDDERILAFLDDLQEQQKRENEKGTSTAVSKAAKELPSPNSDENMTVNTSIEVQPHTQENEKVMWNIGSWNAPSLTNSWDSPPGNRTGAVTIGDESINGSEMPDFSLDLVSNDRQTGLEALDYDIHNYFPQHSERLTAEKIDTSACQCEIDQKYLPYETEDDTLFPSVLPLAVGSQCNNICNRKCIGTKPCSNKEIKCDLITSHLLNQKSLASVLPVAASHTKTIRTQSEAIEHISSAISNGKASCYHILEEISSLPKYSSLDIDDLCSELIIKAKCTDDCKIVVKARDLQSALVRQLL
Description: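 Universal 'all 10-mer' protein binding microarrays (Agilent AMADID 015681) probed with GST-tagged S. cerevisiae TFs (full-length or DBD) made by in vitro transcription/translation (PURExpress), about 100-200 nM. Bound TF was detected with fluorescent anti-GST. Each ungapped 8-mer (which stands for itself and its reverse complement) is scored by the PBM enrichment score (E-score), a modified Wilcoxon-Mann-Whitney statistic from -0.5 to +0.5, computed with the Universal PBM Analysis Suite. Scale: above 0.35 generally sequence-specific binding.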

Sequence	PBM E-score
TAATAATA	0.29
GCGGCGCA	0.0175
ATTGGTGC	0.0222
GAACAAGA	0.176
GGTCCGGA	0.0978
CGATGTTC	-0.0867
TAGGCTCA	-0.226
CAGCACCA	-0.242
GTTCTGAA	0.189
CGGAGCGC	0.0273
AATGCCTA	-0.118
ACTTACCT	-0.168
CGCCAATA	0.0983
CGACGGCG	-0.119
CTAGGCGC	-0.124
AGTGAGAC	0.00334
TCATGGGA	-0.048
GAAGTAAA	0.0339
GGACGTAC	-0.104
AGTAGTAT	0.0888
AACTTGAT	0.268
CTATACCA	0.132
CGAGTCAG	-0.045
CAGCTGAG	0.0708
CACTCCAG	0.0828

Sequence	PBM E-score
ACAGCAGC	-0.102
GACCATGA	-0.0193
CTAGTCGA	0.0243
ACCAGACA	-0.117
TGAATCCA	0.0491
CTGAACCA	0.101
AAGGCTGC	-0.0352
CTTTCAGA	0.0705
TGCAGACA	0.0864
AACGACAT	0.125
AAAAAGTC	0.0909
CAACGAGC	-0.222
AATCGTGC	0.276
GTCCAAAA	0.0254
ATCTGCTG	0.00623
ATATGCGA	0.0945
TAACTCAA	0.0271
CCTTGCAG	-0.13
GCGAACAC	0.0273
GATGACAA	0.304
AGGCGCTC	-0.054
GGCCTCAC	0.0157
AAACTGTG	0.0644
CTCACCTC	0.0325
CTCCCCCA	-0.271

Sequence	PBM E-score
CCAGGGGC	-0.42
CATTGTGA	0.151
CCACATTA	-0.0106
ACGGAGGA	-0.0636
CGCGAGTA	0.141
AACGACGG	0.107
CCTCGGGC	-0.0591
ACTGACTC	-0.0435
GATCCATA	0.0973
GAGGTTCC	0.0299
CCTCTTGC	-0.197
CTGAGGTC	-0.158
CAAGTGAC	0.00674
CTGGGTTA	-0.0909
ACCCGGTA	0.072
TGCTTGAA	0.202
GAACGCCA	-0.0333
AATTAACC	-0.0275
CATAGAGC	-0.22
AATGCACC	-0.0757
CTGGAAGC	-0.168
AAAGCTAT	-0.0626
ACATTACA	0.149
ACCAGTAA	0.06
AAAGGCCA	-0.124

Sequence	PBM E-score
AGCAACGC	0.127
ATAAGAAT	0.284
ATACGACA	0.00871
GAGCTCAA	0.104
AGCGGATA	-0.0234
ATCGGGGA	-0.206
CGGCTCTC	-0.272
CGGCGCCC	-0.068
ACCAAGAG	-0.0606
GGAATACA	0.0249
CTAACAAG	-0.0899
ACGTTCCT	0.0485
GGCTAGAA	-0.0479
ACGCCCCT	-0.301
ACGACCAC	0.0438
AGAGGCGC	-0.102
AGAGTGAA	0.0599
CCGACAGA	0.094
CGCCTCTA	0.0573
GCAACAAA	0.194
CGAAGCTA	0.0437
ACATTACG	0.14
ATGCTTGC	-0.14
CCCCACAA	-0.0865
CTGTACAG	-0.0838

Sequence	PBM E-score
AGGATCCT	0.179
CTTTGGGA	-0.0878
GCGCGTCC	-0.00373
AGCCCAGA	-0.0767
CCTAGCCG	-0.096
CTAAAAAC	-0.0192
ATCACCCC	-0.0703
AACTTATC	0.177
CGTTAAAG	-0.0571
CGTGCTTC	0.0901
CCACGTAG	-0.213
ACGTTAAA	0.19
AAACTATG	-0.145
CCCTGCGC	-0.168
TCGTGTCA	0.133
ACTGATTA	0.265
GAGACTGC	-0.00152
AAGGGGCG	-0.29
AAGACCAA	0.035
GCGCTTCA	0.0664
AACCCCCA	-0.311
CATTTCTC	0.119
GCACTGCC	0.0641
TGAGAAAA	0.0724
CGTTATAG	0.073

Sequence	PBM E-score
ATGTGGTG	-0.0254
GCGGCTCA	0.00226
CAGCGGCC	-0.0649
AAACCGAT	0.00351
CGTACTTC	0.096
ATAGGCAG	0.0141
ACATATCG	-0.104
CGCACCTA	-0.081
TACCCGAA	0.0362
ACAACAGA	-0.0637
GAGGTTCA	0.0769
CCTATCGA	0.0133
CGGCCGCC	-0.112
AATTGTGC	0.0474
TAATAGGA	0.13
GCGTACGA	0.00717
CGTCTAGA	-0.156
ACTTTATG	0.0809
GATGCCAA	-0.159
CCACGACG	-0.0293
CGTGCTCA	0.0902
CTCCCACC	-0.305
CGTCAGGC	-0.125
GAGGCCGA	-0.0148
AAACATAG	-0.0611

Sequence	PBM E-score
ACTTCTAG	-0.253
CGCACTCA	0.0075
CGATAGAG	-0.0302
ATTCCAAA	-0.0355
TGACCACA	-0.0368
GGCCGGCA	0.059
ATTGGGGG	-0.266
AGCCGTAG	-0.0375
ACAATAGA	-0.144
ACATGTTC	-0.00082
GCCAGTAA	-0.0823
CCATTGTC	0.00119
AAGTGCGG	-0.00741
CGCGTAAG	0.241
CGACACCA	0.0539
ATTCGCCG	0.183
CAGCGCCA	-0.16
CAATTATC	0.146
GTAGCGAA	-0.15
ATTGAGGG	-0.206
AGGGTTTA	-0.0703
TCTTTAAA	0.0864
CTTCGTTA	-0.0282
CAGGTTAG	-0.0576
ATATCTAG	0.0434

Sequence	PBM E-score
AGACTCAC	-0.0897
CCGCTCCC	-0.287
ATAAGTAT	0.00112
GACCGTAA	-0.061
AGACGGAC	0.0359
AAGACGGG	-0.0459
TAGGACTA	-0.00499
AAATCTTG	0.109
CAGCTCTC	-0.244
GCATTACC	-0.163
CAGCAGTA	0.0379
ATCCCCCA	-0.425
ACGAGCGC	-0.0482
AATTTGGC	0.0397
AATTACGT	0.13
ATGTGATA	0.135
GCCTAAGC	0.0263
ACTGGAAG	-0.166
GAACGCCC	-0.0229
ACGGTAGC	-0.0419
CTCGCTTC	-0.0572
GGCGCAGA	0.00055
CTACAACC	-0.131
ACATATGG	0.114
CAAACGTG	0.0705

Sequence	PBM E-score
AACGTCGA	0.197
GGCCGGAA	-0.18
CACAATAG	0.0226
TAGCATAA	0.0268
AGGACGAC	-0.0649
CATACGCA	-0.0212
CACGGCCG	-0.0272
GATTTTGA	0.232
AATTTATG	0.229
ACCTCACC	-0.247
TATATAAA	0.23
CATTCTCA	0.121
ACTCATGA	0.0734
GTTGATGA	0.0968
CCAATGGG	-0.261
AGATTACG	0.252
TTTCCAAA	0.00352
TATAATAA	0.278
AGACCTTA	0.122
CAAACACA	0.114
AGGTCGCC	-0.101
AGAGTAGA	-0.0592
CGCGACGA	0.228
CAAGCTAG	-0.0204
ACCGGTTC	-0.105

Sequence	PBM E-score
CATCTAGC	-0.00244
ATGAAGCG	-0.137
CACGTTCC	0.0584
AAACTTAT	0.256
AGGCAAGA	-0.099
TGGGTCAA	-0.0965
CTTTATTA	0.18
CATCCGCA	0.0911
CGACGACG	-0.122
AGATCAGC	0.0485
CCATTACC	-0.054
CGAAAATA	0.163
GAGAGTTA	-0.154
ATCTCTTC	0.0988
ACTCGCGC	0.0881
TGTGAACA	-0.0062
AATTATGG	0.216
CCAGCCCC	0.0778
TGGTCAAA	0.195
GTGTTGGA	0.0266
CACCTTAA	-0.0508
CGGGTCAA	-0.00347
CATCGTAC	0.00513
GTCGACAC	0.0655
TACGTAAA	0.173

Given as a markdown table: part of the list above

| Sequence | PBM E-score |
| --- | --- |
| CGATAGAG | -0.0302 |
| ATTCCAAA | -0.0355 |
| TGACCACA | -0.0368 |
| GGCCGGCA | 0.059 |
| ATTGGGGG | -0.266 |
| AGCCGTAG | -0.0375 |
| ACAATAGA | -0.144 |
| ACATGTTC | -0.00082 |
| GCCAGTAA | -0.0823 |
| CCATTGTC | 0.00119 |
| AAGTGCGG | -0.00741 |
| CGCGTAAG | 0.241 |
| CGACACCA | 0.0539 |
| ATTCGCCG | 0.183 |
| CAGCGCCA | -0.16 |
| CAATTATC | 0.146 |
| GTAGCGAA | -0.15 |
| ATTGAGGG | -0.206 |
| AGGGTTTA | -0.0703 |
| TCTTTAAA | 0.0864 |
| CTTCGTTA | -0.0282 |
| CAGGTTAG | -0.0576 |
| ATATCTAG | 0.0434 |
| AGACTCAC | -0.0897 |
| CCGCTCCC | -0.287 |
| ATAAGTAT | 0.00112 |
| GACCGTAA | -0.061 |
| AGACGGAC | 0.0359 |
| AAGACGGG | -0.0459 |
| TAGGACTA | -0.00499 |
| AAATCTTG | 0.109 |
| CAGCTCTC | -0.244 |
| GCATTACC | -0.163 |
| CAGCAGTA | 0.0379 |
| ATCCCCCA | -0.425 |
| ACGAGCGC | -0.0482 |
| AATTTGGC | 0.0397 |
| AATTACGT | 0.13 |
| ATGTGATA | 0.135 |
| GCCTAAGC | 0.0263 |
| ACTGGAAG | -0.166 |
| GAACGCCC | -0.0229 |
| ACGGTAGC | -0.0419 |
| CTCGCTTC | -0.0572 |
| GGCGCAGA | 0.00055 |
| CTACAACC | -0.131 |
| ACATATGG | 0.114 |
| CAAACGTG | 0.0705 |
| AACGTCGA | 0.197 |
| GGCCGGAA | -0.18 |
| CACAATAG | 0.0226 |
| TAGCATAA | 0.0268 |
| AGGACGAC | -0.0649 |
| CATACGCA | -0.0212 |
| CACGGCCG | -0.0272 |
| GATTTTGA | 0.232 |
| AATTTATG | 0.229 |
| ACCTCACC | -0.247 |
| TATATAAA | 0.23 |
| CATTCTCA | 0.121 |
| ACTCATGA | 0.0734 |
| GTTGATGA | 0.0968 |
| CCAATGGG | -0.261 |
| AGATTACG | 0.252 |
| TTTCCAAA | 0.00352 |
| TATAATAA | 0.278 |
| AGACCTTA | 0.122 |
| CAAACACA | 0.114 |
| AGGTCGCC | -0.101 |
| AGAGTAGA | -0.0592 |
| CGCGACGA | 0.228 |
| CAAGCTAG | -0.0204 |
| ACCGGTTC | -0.105 |
| CATCTAGC | -0.00244 |
| ATGAAGCG | -0.137 |
| CACGTTCC | 0.0584 |
| AAACTTAT | 0.256 |
| AGGCAAGA | -0.099 |
| TGGGTCAA | -0.0965 |
| CTTTATTA | 0.18 |
| CATCCGCA | 0.0911 |
| CGACGACG | -0.122 |
| AGATCAGC | 0.0485 |
| CCATTACC | -0.054 |
| CGAAAATA | 0.163 |
| GAGAGTTA | -0.154 |
| ATCTCTTC | 0.0988 |
| ACTCGCGC | 0.0881 |
| TGTGAACA | -0.0062 |
| AATTATGG | 0.216 |
| CCAGCCCC | 0.0778 |
| TGGTCAAA | 0.195 |
| GTGTTGGA | 0.0266 |
| CACCTTAA | -0.0508 |
| CGGGTCAA | -0.00347 |
| CATCGTAC | 0.00513 |
| GTCGACAC | 0.0655 |

More results:

Sequence	PBM E-score
ACATCCCA	-0.118
AGGCCAAT	-0.0024
CCGTTAGG	-0.0358
AGCTAACA	0.00651
CAATAGAC	0.0128
ATCCCTAC	0.0636
GAGAGGGA	-0.251
AGGCGAAC	-0.147
GAGAAGCA	-0.301
CTAATAAA	0.0515
AACTAAGG	0.00458
GGCTTTGA	0.101
CGACCCTC	-0.211
AAGGCGTG	-0.0602
GACGCCCA	-0.0981
ACCACGGT	-0.2
CCCGTAGA	-0.391
ACAATCGC	0.186
ACATGCCC	-0.183
AGGTCTAA	0.0708
AAAATACT	0.135
AAATATGT	0.277
CAAGTCCG	0.0411
CCCACCAG	-0.0671
ATGAGTCA	0.145

Sequence	PBM E-score
ATATTCAG	0.0684
GCACCCCA	-0.138
ATGAATTG	0.0962
GTCAGCGA	-0.00445
AATCAGGG	-0.0895
ACGGGACG	-0.112
CACACCGC	0.041
AACATAGG	-0.0757
TAAACTGA	0.119
AGTAAGAG	0.0775
ACGTCGGC	0.0403
CCTCCAAA	-0.253
GCGTCACA	-0.011
ACCTATTC	-0.0854
AAAGGCTA	-0.175
ACCGCACA	-0.0189
AAGTCCGG	0.0495
GATTCTAA	-0.00114
AAATCGGA	0.171
GTCATTGA	-0.0116
CCTTTGCA	-0.0663
GCTAAGTA	0.191
CCGTATTC	-0.0178
AGCTGACA	0.192
AGCGGCCT	-0.104

Sequence	PBM E-score
AGTTGTAG	0.0997
GCTGCGCA	0.00523
ACGCTCGA	0.0803
ACAAGGGA	-0.111
CCCGAAGA	-0.0938
CCAAACGA	0.0619
ATGGGCAG	-0.0566
GCATCCGA	-0.0284
AGTCGACC	0.107
TACGGCCA	-0.105
GCGAGAAC	0.0451
ACTTAGCT	-0.106
ATCTGTAA	0.0272
AACTAACG	0.122
ACCTGTCT	-0.11
ACAGCACA	0.132
CGGCTTTA	-0.151
GCCCCGCA	-0.186
ACACCCCG	-0.211
GCCTAGGA	-0.158
CTGCTTGC	-0.0849
CAATTGAG	0.138
ATCTATCG	-0.0482
ATAACTGC	0.0321
AGCAAGTC	-0.088

Sequence	PBM E-score
ACGGAGCT	-0.227
ATTTTCTG	0.0276
AAGCCCCA	-0.197
ACGACGTC	-0.0646
CAAGAGAA	0.115
CGTACTGA	0.0404
CGGACTGA	0.0224
GTAACACA	0.108
CGCCCCTA	-0.0364
AACAGTAG	0.0345
AAAGTCGC	0.124
AATCAGAG	0.126
GGACTAAA	-0.0691
CGATCGGC	0.0161
CATTGAGA	-0.109
GGATTCCC	-0.297
AGCAAACA	0.077
CAGCGTCA	-0.131
CCAGGTCA	-0.323
